From PubChem BioAssay AID686971 (National Center for Advancing Translational Sciences (NCATS), 2013)
The entries are a selection whose mix differs from that of the whole data set. Records with an inconclusive call do not appear. Active and inactive are the calls of the source. Calls come from the whole dose curve; as a rule, active = well fitted cell-killing curve with a large enough effect; inconclusive = small, poorly fitted or top-dose-only effect, or effect the other way, or another doubt; inactive = no such curve, though single readings can be large or run the other way.

Experiment: qHTS for induction of synthetic lethality in tumor cells producing 2HG: qHTS for the HT-1080-IDH1KD cell line
Conditions: HT-1080 IDH1 knockdown viability, ATP luminescence, 48 h
Description: Unbiased genomic sequencing for 22 glioma genomes found recurrent mutation of IDH1 on chromosome 2q33, a gene encoding the cytosolic isoform of IIDH1 associated with the tri-carboxylic acid cycle (TCA) that catalyzes the oxidative decarboxylation of isocitrate, yielding alpha-ketoglutarate and CO2 via NADP+ to NADPH conversion. Subsequent studies confirmed the recurrent IDH mutations in up to 70% of secondary gliomas and in 10% of AML cases. […]
Suspensions of trypsinized HT-1080-IDH1KD cells were dispensed into white, tissue culture-treated, solid 1536-well plates at 5uL/well (750 cells/well final concentration) in RPMI medium supplemented with 5% FBS. […] The plates were measured on a PerkinElmer ViewLux plate reader for luminescent signal (clear filter, 1 sec exp.). […]
Concentration-response curves were fitted to the signals arising from the resulting luminescence. The concentration-effect curves were then classified based on curve quality (r2), response magnitude and degree of measured activity, and compounds were subsequently categorized based on their curve class.
Potency is the fitted concentration of half-maximal effect.

Structure (SMILES) | Potency
COc1c(O)cc2c(c1OC)-c1ccc(SC)c(=O)cc1C(NC(C)=O)CC2 (stereo unspecified) | active: 7.3 nM
